Measured values reported in US10390536B2, “Methods, compounds and compositions for repelling insects and/or arachnids” (National Center for Scientific Research “Demokritos”, priority 2013, dated 2019).
At least one read-out could not be matched to a standard name with certainty.

Test system: Anopheles gambiae (Giles) ss strain 16CSS female mosquitoes
Assay: warm body repellence assay (mosquito landings)
Type: in vivo
Details: 20 nmole per cm^2
Experimental: To test the behavior of female mosquitoes to an essential oil containing OBP binding components, a previously described repellence assay [Kröber et al. (2010). An In Vitro Assay for Testing Mosquito Repellents Employing a Warm Body and Carbon Dioxide as a Behavioral Activator. Journal of the American Mosquito Control Association 26(4) 381-386] was conducted that measures the number of mosquito landings on a warm surface onto which an essential oil containing at least one candidate compound was applied.
To conduct a repellency assay, a selected essential oil or ethanol negative control was applied to a warm body at a dose of about 3.8 μg/cm^2 and allowed to dry for 40 seconds in order to allow evaporation of the solvent before introduction into the test cage with mosquitoes. As positive control for repellence, DEET dissolved in ethanol was applied to the warm body at the same dose. The treated warm body in conjunction with a pulse of carbon dioxide was introduced into the test cage containing fifty Anopheles gambiae (Giles) ss strain 16CSS female mosquitoes that were 4-11 days old and the number of mosquito landings on the warm body occurring within a 2-minute period was counted. […] Repellent values were calculated from counted landings on treatments versus the overall landings on pooled controls. […]

Structure (SMILES): COC(=O)C=Cc1ccccc1 [methyl-trans-cinnamate, methyl 3-phenylprop-2-enoate]
- Median Repellency (%): 14.0%
